B1: il10ra_site1_normal_mot_HHH_b1_08477_000000091_0001_40_57_H_._HHH_b2_03987_af2_0002_0000600012_0000001_0 (protein)
chain: SSSSNEAEEAVRRALESAERAYELGDPELVEQALRFAEALAKALNDPELQELVEEVKEELSSSSS
B2: il10ra_site1_normal_mot_HHH_b1_00999_000000080_0001_41_55_H_._HHH_b1_03194_0001_0000400033_0000002_0 (protein)
chain: SSSSSSDVEELLEELEELLEEGNKEEALRILQEALRHAFRNSDPELLKRLWEFARRLGSSSSSSS
B3: il10ra_site1_sap_26_mot_HHH_b2_05323_000000159_0001_1_18_H_._HHH_b1_03540_af2_0001_0000800033_0000001_0_0001 (protein)
chain: SSSSSELEEEVRKLLEEAEELAERGDEKYAKVLQEAVHLVMHNGNKELLQLIWRVVKELASSSSS
B4: il10ra_site1_normal_mot_HHH_b1_05357_000000034_0001_23_39_H_._HHH_b2_05651_0002_0000100005_0000001_0_af2pred_0001 (protein)
chain: SSSSDKELEEEVEELLEEAEKSTDRHEISYLLIRAFALANRVNDPELRKEVERVAQELSNSSSSS
B5: il10ra_site1_normal_mot_HHH_b1_05254_000000006_0001_1_19_H_._HHH_b2_04238_0001_0000600040_0000001_0 (protein)
chain: SSSSSEEVEEEVERLLEEARKIEDPDEFYRLLREAIELAAENNDPELVRLVIEAFREWLHSSSSS
B6: il10ra_site1_normal_mot_HHH_b2_00479_000000091_0001_1_12_H_._HHH_b2_03846_0001_0000400033_0000001_0_af2pred_0001 (protein)
chain: SSSSSSIHELLRLAREILELREEGDEEEAERLIEELERLAKELNDPLAEFIARALRRALESSSSS
B7: il10ra_site1_normal_mot_HHH_b1_05098_000000185_0001_1_18_H_._HHH_b1_08206_0001_0000200007_0000002_0 (protein)
chain: SSSSDKRERALELVLEAFRLLLRGNPEEAEELLEEAEKLAEEINNEQLLRVIQQLLETVRSSSSS
B8: il10ra_site1_normal_mot_HHH_b2_00273_000000062_0001_23_39_H_._HHH_b2_04285_0001_0000400025_0000001_0 (protein)
chain: SSSSDLEEQIEELREELREALERGDKELALRLLQELIRLAFATSDQELLRELWEIVRKLASSSSS
B9: il10ra_site1_sap_21_mot_104c758fc23488854646035ccb2100c6_0001_000000282_0001_15_29_H_._203a44625a3a2ba431098544127a80a6_0001_0001_0000100001_0000002_0_0001_af2p … (protein)
chain: SSSEEEVEELVKEVERVAEERGDPEARLAARVLKASAEAARELNNEEALRIISWALRAFKQVFSS
B10: il10ra_site1_sap_14_mot_HHH_b2_03038_000000109_0001_1_20_H_._HHH_b1_00475_0001_0000200015_0000001_0_0001 (protein)
chain: SSDTHQEFFRVVREAIEAAADNDDEEAEELVKEAEEIAKEIGNQVARWIVEFVKRLVEKLRSSSS
B11: il10ra_site1_normal_mot_8756ee2cf497b5429c717dfc0c0bcfd6_0001_000000186_0001_1_13_H_._HHH_b2_05518_af2_0001_0000900034_0000001_0 (protein)
chain: SSSSDEENHELYELLRELAELHAEGDRERAEKLAEELEELAEELNNDVVLAQVKYLLRALSSSSS
B12: il10ra_site1_normal_mot_HHH_b1_02004_000000220_0001_1_19_H_._HHH_b1_04324_af2_0001_0000100003_0000002_0 (protein)
chain: SSSSDEEFEEFKRLVEKVAELLEEGDEEKAEELIERLEELAEERNTPALEWSVRLLKRVLSSSSS
B13: il10ra_site1_sap_17_mot_HHH_b1_06914_000000280_0001_1_18_H_._HHH_b2_02639_0001_0000100004_0000002_0_0001_af2pred_0001 (protein)
chain: SDEEERIFRIVIEAYRELLKAGVSKEEIAKANARLVEALRRGVSAEEVEEIAEEIVREAKEESSS
B14: il10ra_site1_normal_mot_HHH_b1_06789_af2_000000041_0001_1_20_H_._HHH_b2_01741_0001_0000300028_0000001_0_af2pred_0001 (protein)
chain: SSSSNTEHLVRLALRAAENAAKKGDPERAEEILKLAEFLAELANDPELEELVEEVRKRVEGSSSS
B15: il10ra_site1_sap_13_mot_HHH_b2_06979_000000158_0001_42_57_H_._HHH_b1_06674_0001_0000300029_0000001_0_0001 (protein)
chain: SSSSSTESEELQELIERAAELLRNGDEEEAEEILQEVQRLAEEAGNWVIRFAAEVLLKNISSSSS
B16: il10ra_site1_normal_mot_HHH_b1_02997_000000220_0001_39_52_H_._HHH_b1_05152_af2_0001_0000500023_0000001_0_af2pred_0001 (protein)
chain: SSSSSSETEEIIRLIRRALELAREDPEEAEELLRRAEELAEEINNLTLRFQVEFALRRLSSSSSS
B17: il10ra_site1_sap_20_mot_HHH_b1_02637_000000294_0001_42_59_H_._HHH_b1_01330_af2_0001_0000400015_0000001_0_0001 (protein)
chain: SSSSDEAQEEAEELLEELEKALREGDREKALRIAQRAIRAAFQAGDPELLRAIWELLKEFNSSSS
B18: il10ra_site1_sap_23_mot_HHH_b2_03220_af2_000000223_0001_23_40_H_._HHH_b2_07389_af2_0001_0000300019_0000001_0_0001_af2pred_0001 (protein)
chain: SSSSSAFEDIVRLALKTAEIAKEKGDEEKVERALEIARRSARLANDPELEELVEEVEERLSSSSS
B19: il10ra_site1_normal_mot_HHH_b2_00479_000000091_0001_1_12_H_._HHH_b2_05755_0001_0000100011_0000002_0_af2pred_0001 (protein)
chain: SSSSDELRRLVELAREILEVIQEGDEERAEELLEELEELAKESNNPLAEFILEALRRRLGSSSSS
B20: il10ra_site1_sap_24_mot_HHH_b2_03183_af2_000000055_0001_40_56_H_._HHH_b1_03848_0001_0000100008_0000001_0_0001 (protein)
chain: SSSDVEEEVEELEERIRELIEEGDRERAVRLAQRLVQLAFEANDPRIFRAIIELAELIKRISSSS
B21: il10ra_site1_normal_mot_HHH_b2_00622_af2_000000153_0001_40_57_H_._HHH_b2_08056_0001_0000200009_0000001_0_af2pred_0001 (protein)
chain: SSSSDLEELRRLVEELLEELEELGDERAVEALRRLLRAAERLKNPQSLRVALWLAEAALEESSSS
B22: il10ra_site1_sap_17_mot_HHH_b1_08742_000000056_0001_1_20_H_._HHH_b2_02292_af2_0001_0000400025_0000002_0_0001 (protein)
chain: SSSSDEERHKLAELVMRAARLMFRGNPEEAREVLEEAEQLARELGDERMLKLVEQLLKTLSSSSS
B23: il10ra_site1_sap_19_mot_HHH_b1_04228_af2_000000161_0001_1_18_H_._HHH_b2_03736_af2_0001_0000600013_0000001_0_0001 (protein)
chain: SSSSDAEERVEELLELLEELLERNDEEEFAEVAQEAVRLAFEAGNKELLRQIWELIQRLRSSSSS
B24: il10ra_site1_normal_mot_HHH_b1_06789_af2_000000041_0001_1_20_H_._HHH_b2_02893_0001_0000300015_0000001_0_af2pred_0001 (protein)
chain: SSSSSSSEELVKIALKAVRIAFEAGDPEQAKRALEIARLLAEQANNPELEEEVEELEKELSSSSS

This is one part of the list. Some results are limits rather than exact numbers.

The assay concerns the target il10ra, Q13651. The experiment in a line: yeast display titration.
Regarding B1, the “apparent Kd” value was “inactive: no binding seen”.
Then B2, with “inactive: no binding seen”.
As to B3, the “apparent Kd” value is “inactive: no binding seen”.
Then B4, with “inactive: no binding seen”.
Then B5, with “inactive: no binding seen”; and B6, with “inactive: no binding seen”; and B7, with “inactive: no binding seen”.
Then B8, with “inactive: no binding seen”; and B9, with “inactive: no binding seen”.
B10: the “apparent Kd” value was “inactive: no binding seen”.
Then B11, with “inactive: no binding seen”; and B12, with “inactive: no binding seen”.
Then B13, with inactive: > 1.12 µM; and B14, with “inactive: no binding seen”.
On to B15, for which the “apparent Kd” value is “inactive: no binding seen”.
Then B16, with “inactive: no binding seen”.
Then B17, with “inactive: no binding seen”; and B18, with “inactive: no binding seen”; and B19, with “inactive: no binding seen”.
Then B20, with “inactive: no binding seen”; and B21, with “inactive: no binding seen”; and B22, with “inactive: no binding seen”.
B23: the “apparent Kd” value was “inactive: no binding seen”.
Then B24, with “inactive: no binding seen”.

(Values after PMC10163288.)
